US20220275097A1
These are yes or no findings as the source states them, for the method shown. Some binding calls cover weakened binding; strength is not graded here.

The chains behind the UniProt entries cited, without tags or fusion partners. Residues count along the entry.
UniProt P48357, residues 22-839: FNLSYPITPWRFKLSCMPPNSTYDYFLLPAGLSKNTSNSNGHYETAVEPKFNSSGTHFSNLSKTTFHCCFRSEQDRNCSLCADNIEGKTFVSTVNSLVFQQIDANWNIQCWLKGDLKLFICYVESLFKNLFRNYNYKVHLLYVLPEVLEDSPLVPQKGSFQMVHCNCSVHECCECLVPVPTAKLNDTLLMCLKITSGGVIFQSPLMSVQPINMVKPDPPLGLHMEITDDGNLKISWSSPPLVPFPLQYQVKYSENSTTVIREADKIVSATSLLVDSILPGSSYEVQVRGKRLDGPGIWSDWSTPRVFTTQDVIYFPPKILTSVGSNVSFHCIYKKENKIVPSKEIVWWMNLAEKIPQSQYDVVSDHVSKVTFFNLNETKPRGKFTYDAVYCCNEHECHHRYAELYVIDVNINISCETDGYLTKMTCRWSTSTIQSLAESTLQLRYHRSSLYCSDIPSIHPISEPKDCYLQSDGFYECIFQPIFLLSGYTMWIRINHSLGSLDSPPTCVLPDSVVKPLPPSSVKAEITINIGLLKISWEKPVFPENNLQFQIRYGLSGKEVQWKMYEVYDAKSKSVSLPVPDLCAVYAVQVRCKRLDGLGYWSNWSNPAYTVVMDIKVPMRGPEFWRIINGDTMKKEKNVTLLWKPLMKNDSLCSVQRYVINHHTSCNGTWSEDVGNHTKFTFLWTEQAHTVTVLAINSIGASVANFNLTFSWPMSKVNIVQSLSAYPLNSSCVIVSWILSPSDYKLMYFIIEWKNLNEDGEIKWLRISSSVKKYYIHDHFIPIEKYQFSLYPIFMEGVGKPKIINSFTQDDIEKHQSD
UniProt P41159, residues 22-167: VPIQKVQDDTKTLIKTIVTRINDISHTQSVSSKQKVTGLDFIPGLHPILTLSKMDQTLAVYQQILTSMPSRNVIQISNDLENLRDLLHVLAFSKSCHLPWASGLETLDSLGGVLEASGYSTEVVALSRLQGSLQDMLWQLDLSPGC

Legend:
[1] = biological target: extracellular domain of the human leptin receptor (human) (UniProt P48357); experiment: SPR (Biacore T200), His-tagged leptin receptor ECD amine-coupled to a CM5 chip, leptin as analyte
[2] = biological target: extracellular domain of the human leptin receptor (human) (UniProt P48357); experiment: SPR, Biacore T200
[3] = biological target: extracellular domain of the human leptin receptor (human) (UniProt P48357); experiment: competition ELISA: plate coated with human leptin receptor ECD, leptin titrated together with fixed S2H6 (3.12, 1.56 or 0.78 nM), bound antibody detected with a secondary antibody, OD405
[4] = biological target: extracellular domain of the human leptin receptor (human) (UniProt P48357); experiment: competition ELISA: plate coated with human leptin receptor ECD, leptin titrated together with fixed S1scAb06 (50, 25 or 12.5 nM), bound antibody detected with a secondary antibody, OD405

binding [1]: binds
binding [2]: binds
binding [3]: binds
binding [4]: binds
Substance: leptin (from UniProt P41159 22-167) (ligand)
